# Experimental data as given in article PMC7479175, “Selection of Potent Inhibitors of Soluble Epoxide Hydrolase for Usage in Veterinary Medicine” (Frontiers in Veterinary Science, 2020).
# The chains behind the UniProt entries cited, without tags or fusion partners. Residues count along the entry.
# UniProt A0A8I3NJL8, 1-556: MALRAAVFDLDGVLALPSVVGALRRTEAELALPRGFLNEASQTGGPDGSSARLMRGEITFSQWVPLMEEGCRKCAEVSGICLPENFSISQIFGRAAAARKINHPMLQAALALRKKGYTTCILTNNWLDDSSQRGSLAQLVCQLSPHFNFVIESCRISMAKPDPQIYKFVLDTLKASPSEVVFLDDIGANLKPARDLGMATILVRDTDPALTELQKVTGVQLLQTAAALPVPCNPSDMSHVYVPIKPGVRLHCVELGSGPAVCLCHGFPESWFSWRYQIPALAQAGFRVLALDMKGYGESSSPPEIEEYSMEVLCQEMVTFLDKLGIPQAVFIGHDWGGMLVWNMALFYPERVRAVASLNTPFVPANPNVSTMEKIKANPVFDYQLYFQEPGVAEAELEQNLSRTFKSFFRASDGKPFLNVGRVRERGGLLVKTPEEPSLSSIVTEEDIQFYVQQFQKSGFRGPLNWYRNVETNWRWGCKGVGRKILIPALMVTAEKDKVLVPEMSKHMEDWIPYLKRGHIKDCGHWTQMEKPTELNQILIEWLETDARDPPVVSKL
# Target: Dog sEH (Canis lupus familiaris, UniProt A0A8I3NJL8)
# Assay: Primary screen (end point) of the sEH inhibitor library, PHOME substrate
# Assay type: biochemical
# Details: [I] = 100 nM, primary end-point screening; 0.1 µM
smiles,measurement,value
O=C(NCCCc1ccccc1)NC12CC3CC(CC(C3)C1)C2,Dog sEH Inhibition (%) P.,90% and < 90%

# Some entries of the source have several records that differ or are many. They are shown here; other results are not. An entry can have further records. The values listed for one entry do not match, cause unknown; dose, time, organism, isomer or construct need not be as stated for each record.
